# Taken from: PubChem BioAssay AID1259308 (NCATS, 2017)
# Test: 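Genes whose loss raises luciferase production in HEK293 cells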 (primary screen)
# Cell system: human HEK293 embryonic kidney cells stably expressing firefly luciferase (HEK-CMV-Luc2-Hygro)
# Reagents: single siRNA against human genes, 0.8 pmol siRNA per well
# Time to read-out: 72 h
# Measurement: 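Reporter luminescence and viable-cell signal on separate replicate plates, given as percent of non-targeting control and median/MAD z-scores, plus per-cell luciferase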
# Direction: total luciferase, z-score and total luciferase, % of control: higher = more reporter protein produced; luciferase per cell, z-score: higher = more reporter output per viable cell; viable cells, % of control: higher = more viable cells
# Call rule: 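Active when the median/MAD z-score for overall luciferase is greater than 3; a gene was taken forward for validation with new siRNAs if at least two of its three siRNAs passed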
# Calls: active = raised luciferase; inactive = no rise
# Shown is a random part of about 59,000 reagents. About 1,510 of them (2.6%) were called active. 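Calls use total luciferase alone and ignore viability, so some active siRNAs may act by altering cell number.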 No sequences are given here.
Target gene,PubChem SID,"total luciferase, z-score","total luciferase, % of control","luciferase per cell, z-score","viable cells, % of control",outcome
RPL23P7 (ribosomal protein L23 pseudogene 7),SID160725468,-0.716,67.7,-1.34,108,inactive
RPL23P7 (ribosomal protein L23 pseudogene 7),SID160768168,0.855,98.9,1.25,79.4,inactive
RPL23P7 (ribosomal protein L23 pseudogene 7),SID160768169,-0.795,66.1,-0.944,94.7,inactive
GARIN5A (golgi associated RAB2 interactor 5A),SID160754719,-1.03,61.4,-0.333,74.9,inactive
GARIN5A (golgi associated RAB2 interactor 5A),SID160754720,0.824,98.3,0.41,98.6,inactive
GARIN5A (golgi associated RAB2 interactor 5A),SID160754721,1.28,107,1.73,76,inactive
OSCAR (osteoclast associated Ig-like receptor),SID160756379,-0.367,74.6,-1.01,109,inactive
OSCAR (osteoclast associated Ig-like receptor),SID160756380,0.368,89.2,0.344,91,inactive
OSCAR (osteoclast associated Ig-like receptor),SID160756381,-0.725,67.5,-0.664,89.8,inactive
PRRT4 (proline rich transmembrane protein 4),SID160767269,-0.751,66.9,1.48,50.7,inactive
PRRT4 (proline rich transmembrane protein 4),SID160767270,0.934,100,0.587,96.2,inactive
PRRT4 (proline rich transmembrane protein 4),SID160767271,1.64,114,1.47,86.9,inactive
ELMOD3 (ELMO domain containing 3),SID160751835,1.94,121,1.61,88.1,inactive
ELMOD3 (ELMO domain containing 3),SID160751836,2.64,134,1.72,95.4,inactive
ELMOD3 (ELMO domain containing 3),SID160751837,-1.17,58.6,-0.728,79.3,inactive
LOC653303 (proprotein convertase subtilisin/kexin type 7 pseudogene),SID160734174,3.69,155,1.91,105,active
LOC653303 (proprotein convertase subtilisin/kexin type 7 pseudogene),SID160770978,2.58,133,2.07,86.4,inactive
LOC653303 (proprotein convertase subtilisin/kexin type 7 pseudogene),SID160770979,1.47,111,1.6,81.5,inactive
EXOC3L4 (exocyst complex component 3 like 4),SID160754115,2.66,135,1.85,92.6,inactive
EXOC3L4 (exocyst complex component 3 like 4),SID160754117,1.42,110,0.919,96.6,inactive
EXOC3L4 (exocyst complex component 3 like 4),SID160754118,0.802,97.8,1.82,67.6,inactive
SETBP1 (SET binding protein 1),SID160737514,-0.353,74.9,-1.09,111,inactive
SETBP1 (SET binding protein 1),SID160737515,2.43,130,2.9,67.8,inactive
SETBP1 (SET binding protein 1),SID160737516,-0.426,73.4,-0.65,97.4,inactive
ZNF723 (zinc finger protein 723),SID160770036,-1.63,49.5,2.15,31.4,inactive
ZNF723 (zinc finger protein 723),SID160770037,1.08,103,1.47,78.5,inactive
ZNF723 (zinc finger protein 723),SID160770038,4.66,174,2.98,89,active
"SH3GLB2 (SH3 domain containing GRB2 like, endophilin B2)",SID160745260,1.51,112,0.641,106,inactive
"SH3GLB2 (SH3 domain containing GRB2 like, endophilin B2)",SID160745261,0.166,85.2,0.0341,94.3,inactive
"SH3GLB2 (SH3 domain containing GRB2 like, endophilin B2)",SID160745262,0.761,97,0.156,104,inactive
"ADH1A (alcohol dehydrogenase 1A (class I), alpha polypeptide)",SID160714397,0.479,91.4,-0.271,110,inactive
"ADH1A (alcohol dehydrogenase 1A (class I), alpha polypeptide)",SID160714407,-0.0238,81.4,0.032,90.2,inactive
"ADH1A (alcohol dehydrogenase 1A (class I), alpha polypeptide)",SID160714418,0.172,85.3,-0.0907,97.6,inactive
SNTG1 (syntrophin gamma 1),SID160741618,-0.308,75.8,-0.574,98.5,inactive
SNTG1 (syntrophin gamma 1),SID160741619,1.83,118,1.37,92.2,inactive
SNTG1 (syntrophin gamma 1),SID160741620,-0.679,68.4,-0.967,98.6,inactive
FABP5P10 (fatty acid binding protein 5 pseudogene 10),SID160725113,1.99,121,1.46,92.3,inactive
FABP5P10 (fatty acid binding protein 5 pseudogene 10),SID160764763,-1.46,52.9,-0.86,74.1,inactive
FABP5P10 (fatty acid binding protein 5 pseudogene 10),SID160764764,1.93,120,2.12,76.8,inactive
XPC,SID160718896,0.437,90.6,0.831,81.3,inactive
XPC,SID160718897,2.8,138,2.68,76,inactive
XPC,SID160718899,-0.457,72.8,-0.484,92.4,inactive
FGF14 (fibroblast growth factor 14),SID160732722,-0.71,67.8,0.403,68.1,inactive
FGF14 (fibroblast growth factor 14),SID160765336,-1.27,56.7,-1.26,88.3,inactive
FGF14 (fibroblast growth factor 14),SID160765345,0.52,92.2,0.713,85.4,inactive
WBP2 (WW domain binding protein 2),SID160732769,1.14,105,1.04,89,inactive
WBP2 (WW domain binding protein 2),SID160736564,-0.232,77.3,0.891,68.3,inactive
WBP2 (WW domain binding protein 2),SID160736565,-0.225,77.4,-0.0665,88,inactive
ALDH1A2 (aldehyde dehydrogenase 1 family member A2),SID160720980,-2.45,33.3,-1.44,54.3,inactive
ALDH1A2 (aldehyde dehydrogenase 1 family member A2),SID160720981,-0.283,76.3,-0.859,107,inactive
ALDH1A2 (aldehyde dehydrogenase 1 family member A2),SID160732105,-0.0367,81.2,-1.1,121,inactive
RWDD2B (RWD domain containing 2B),SID160724913,-0.23,77.3,-0.458,97.5,inactive
RWDD2B (RWD domain containing 2B),SID160724923,0.432,90.5,1.91,61.1,inactive
RWDD2B (RWD domain containing 2B),SID160724932,-0.157,78.8,0.466,77.9,inactive
FAM20B (FAM20B glycosaminoglycan xylosylkinase),SID160723433,-2.14,39.3,-2.06,75.5,inactive
FAM20B (FAM20B glycosaminoglycan xylosylkinase),SID160723434,-0.282,76.3,0.279,79.2,inactive
FAM20B (FAM20B glycosaminoglycan xylosylkinase),SID160723435,-1.32,55.5,-1.17,84.4,inactive
ADCY9 (adenylate cyclase 9),SID160714176,0.306,88,0.805,79.5,inactive
ADCY9 (adenylate cyclase 9),SID160714187,-0.268,76.6,-0.773,105,inactive
ADCY9 (adenylate cyclase 9),SID160714198,0.0839,83.6,-0.464,106,inactive
"PRSS59P (serine protease 59, pseudogene)",SID160773770,-1.12,59.7,-0.64,78.9,inactive
"PRSS59P (serine protease 59, pseudogene)",SID160773771,-0.047,81,-0.00831,90.7,inactive
"PRSS59P (serine protease 59, pseudogene)",SID160773772,-0.352,74.9,0.113,81.2,inactive
FRAT2 (FRAT regulator of Wnt signaling pathway 2),SID160732764,0.696,95.7,0.487,94.1,inactive
FRAT2 (FRAT regulator of Wnt signaling pathway 2),SID160736204,2.15,125,2.41,73.8,inactive
FRAT2 (FRAT regulator of Wnt signaling pathway 2),SID160736205,2.29,127,2.17,80.4,inactive
LONRF3 (LON peptidase N-terminal domain and ring finger 3),SID160749560,1.46,111,0.541,107,inactive
LONRF3 (LON peptidase N-terminal domain and ring finger 3),SID160749561,-1.17,58.7,-1.49,97.2,inactive
LONRF3 (LON peptidase N-terminal domain and ring finger 3),SID160749562,-0.073,80.4,-0.695,108,inactive
CD40 (CD40 molecule),SID160732205,-1.11,59.9,-1.63,103,inactive
CD40 (CD40 molecule),SID160739346,1.11,104,0.992,89.5,inactive
CD40 (CD40 molecule),SID160739366,-0.633,69.3,-0.663,92.2,inactive
ELF2P4 (ELF2 pseudogene 4),SID160769376,-0.979,62.4,-0.79,85.9,inactive
ELF2P4 (ELF2 pseudogene 4),SID160769377,0.709,96,0.86,85.5,inactive
ELF2P4 (ELF2 pseudogene 4),SID160769378,3.57,153,2.37,91.4,active

11 entries already listed, ordered by “total luciferase, z-score”, low to high.
Target gene,PubChem SID,"total luciferase, z-score","total luciferase, % of control","luciferase per cell, z-score","viable cells, % of control",outcome
ZNF723 (zinc finger protein 723),SID160770036,-1.63,49.5,2.15,31.4,inactive
SETBP1 (SET binding protein 1),SID160737516,-0.426,73.4,-0.65,97.4,inactive
SETBP1 (SET binding protein 1),SID160737514,-0.353,74.9,-1.09,111,inactive
"SH3GLB2 (SH3 domain containing GRB2 like, endophilin B2)",SID160745261,0.166,85.2,0.0341,94.3,inactive
"ADH1A (alcohol dehydrogenase 1A (class I), alpha polypeptide)",SID160714397,0.479,91.4,-0.271,110,inactive
"SH3GLB2 (SH3 domain containing GRB2 like, endophilin B2)",SID160745262,0.761,97,0.156,104,inactive
EXOC3L4 (exocyst complex component 3 like 4),SID160754118,0.802,97.8,1.82,67.6,inactive
ZNF723 (zinc finger protein 723),SID160770037,1.08,103,1.47,78.5,inactive
"SH3GLB2 (SH3 domain containing GRB2 like, endophilin B2)",SID160745260,1.51,112,0.641,106,inactive
SETBP1 (SET binding protein 1),SID160737515,2.43,130,2.9,67.8,inactive
ZNF723 (zinc finger protein 723),SID160770038,4.66,174,2.98,89,active
